# Data reported in the supplement of paper PMC11732987, “Enantioselective OTUD7B fragment discovery through chemoproteomics screening and high-throughput optimisation” (Communications Chemistry, 2025).
# By UniProt entry, the sequences of proteins in these tests, tags left out. Where a name states a change or a piece, a line headed by the entry shows the natural chain unless it says otherwise.
# UniProt Q9NZM3: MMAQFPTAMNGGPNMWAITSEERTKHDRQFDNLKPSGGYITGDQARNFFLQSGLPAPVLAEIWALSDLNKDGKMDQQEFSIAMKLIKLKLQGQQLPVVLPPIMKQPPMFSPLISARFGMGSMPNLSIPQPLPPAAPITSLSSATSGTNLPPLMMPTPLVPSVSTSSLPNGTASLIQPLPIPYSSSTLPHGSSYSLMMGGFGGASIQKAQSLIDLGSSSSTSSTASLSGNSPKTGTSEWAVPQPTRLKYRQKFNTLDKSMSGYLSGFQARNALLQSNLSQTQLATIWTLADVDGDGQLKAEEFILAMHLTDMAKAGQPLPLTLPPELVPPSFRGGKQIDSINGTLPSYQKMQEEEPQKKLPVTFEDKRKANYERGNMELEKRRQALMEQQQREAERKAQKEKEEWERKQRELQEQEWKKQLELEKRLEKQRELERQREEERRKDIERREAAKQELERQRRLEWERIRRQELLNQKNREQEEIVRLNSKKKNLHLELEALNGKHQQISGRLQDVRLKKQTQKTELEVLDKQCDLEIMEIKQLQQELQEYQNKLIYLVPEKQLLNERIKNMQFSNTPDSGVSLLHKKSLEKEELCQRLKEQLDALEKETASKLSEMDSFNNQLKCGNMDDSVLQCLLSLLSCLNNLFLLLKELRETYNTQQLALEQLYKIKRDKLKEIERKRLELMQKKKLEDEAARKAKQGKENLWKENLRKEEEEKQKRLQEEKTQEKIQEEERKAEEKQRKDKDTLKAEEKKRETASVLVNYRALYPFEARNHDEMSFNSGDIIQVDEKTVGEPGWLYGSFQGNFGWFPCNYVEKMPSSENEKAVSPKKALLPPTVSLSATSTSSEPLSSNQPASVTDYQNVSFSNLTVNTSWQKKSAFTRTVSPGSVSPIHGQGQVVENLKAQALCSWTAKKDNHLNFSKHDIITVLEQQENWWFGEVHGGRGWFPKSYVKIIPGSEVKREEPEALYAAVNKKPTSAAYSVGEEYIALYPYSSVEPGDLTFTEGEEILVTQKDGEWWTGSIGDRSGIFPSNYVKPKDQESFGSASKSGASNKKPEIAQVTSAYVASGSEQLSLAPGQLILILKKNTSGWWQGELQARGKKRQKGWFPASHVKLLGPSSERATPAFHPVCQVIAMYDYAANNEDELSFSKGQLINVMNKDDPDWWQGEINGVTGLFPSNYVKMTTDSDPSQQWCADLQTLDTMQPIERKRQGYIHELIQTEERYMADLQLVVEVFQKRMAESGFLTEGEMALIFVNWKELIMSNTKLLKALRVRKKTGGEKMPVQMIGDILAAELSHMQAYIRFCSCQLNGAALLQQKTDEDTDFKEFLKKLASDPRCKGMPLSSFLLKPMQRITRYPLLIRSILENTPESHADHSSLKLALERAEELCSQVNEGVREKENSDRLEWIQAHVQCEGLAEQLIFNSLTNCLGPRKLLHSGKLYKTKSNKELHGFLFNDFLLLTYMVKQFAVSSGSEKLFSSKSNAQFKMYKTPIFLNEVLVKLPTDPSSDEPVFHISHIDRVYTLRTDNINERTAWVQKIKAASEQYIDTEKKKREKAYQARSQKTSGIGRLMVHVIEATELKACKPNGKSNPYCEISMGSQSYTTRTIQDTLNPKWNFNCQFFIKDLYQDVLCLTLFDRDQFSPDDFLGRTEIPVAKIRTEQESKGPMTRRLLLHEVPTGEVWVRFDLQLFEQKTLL
# UniProt Q14643, whole entry, looked up: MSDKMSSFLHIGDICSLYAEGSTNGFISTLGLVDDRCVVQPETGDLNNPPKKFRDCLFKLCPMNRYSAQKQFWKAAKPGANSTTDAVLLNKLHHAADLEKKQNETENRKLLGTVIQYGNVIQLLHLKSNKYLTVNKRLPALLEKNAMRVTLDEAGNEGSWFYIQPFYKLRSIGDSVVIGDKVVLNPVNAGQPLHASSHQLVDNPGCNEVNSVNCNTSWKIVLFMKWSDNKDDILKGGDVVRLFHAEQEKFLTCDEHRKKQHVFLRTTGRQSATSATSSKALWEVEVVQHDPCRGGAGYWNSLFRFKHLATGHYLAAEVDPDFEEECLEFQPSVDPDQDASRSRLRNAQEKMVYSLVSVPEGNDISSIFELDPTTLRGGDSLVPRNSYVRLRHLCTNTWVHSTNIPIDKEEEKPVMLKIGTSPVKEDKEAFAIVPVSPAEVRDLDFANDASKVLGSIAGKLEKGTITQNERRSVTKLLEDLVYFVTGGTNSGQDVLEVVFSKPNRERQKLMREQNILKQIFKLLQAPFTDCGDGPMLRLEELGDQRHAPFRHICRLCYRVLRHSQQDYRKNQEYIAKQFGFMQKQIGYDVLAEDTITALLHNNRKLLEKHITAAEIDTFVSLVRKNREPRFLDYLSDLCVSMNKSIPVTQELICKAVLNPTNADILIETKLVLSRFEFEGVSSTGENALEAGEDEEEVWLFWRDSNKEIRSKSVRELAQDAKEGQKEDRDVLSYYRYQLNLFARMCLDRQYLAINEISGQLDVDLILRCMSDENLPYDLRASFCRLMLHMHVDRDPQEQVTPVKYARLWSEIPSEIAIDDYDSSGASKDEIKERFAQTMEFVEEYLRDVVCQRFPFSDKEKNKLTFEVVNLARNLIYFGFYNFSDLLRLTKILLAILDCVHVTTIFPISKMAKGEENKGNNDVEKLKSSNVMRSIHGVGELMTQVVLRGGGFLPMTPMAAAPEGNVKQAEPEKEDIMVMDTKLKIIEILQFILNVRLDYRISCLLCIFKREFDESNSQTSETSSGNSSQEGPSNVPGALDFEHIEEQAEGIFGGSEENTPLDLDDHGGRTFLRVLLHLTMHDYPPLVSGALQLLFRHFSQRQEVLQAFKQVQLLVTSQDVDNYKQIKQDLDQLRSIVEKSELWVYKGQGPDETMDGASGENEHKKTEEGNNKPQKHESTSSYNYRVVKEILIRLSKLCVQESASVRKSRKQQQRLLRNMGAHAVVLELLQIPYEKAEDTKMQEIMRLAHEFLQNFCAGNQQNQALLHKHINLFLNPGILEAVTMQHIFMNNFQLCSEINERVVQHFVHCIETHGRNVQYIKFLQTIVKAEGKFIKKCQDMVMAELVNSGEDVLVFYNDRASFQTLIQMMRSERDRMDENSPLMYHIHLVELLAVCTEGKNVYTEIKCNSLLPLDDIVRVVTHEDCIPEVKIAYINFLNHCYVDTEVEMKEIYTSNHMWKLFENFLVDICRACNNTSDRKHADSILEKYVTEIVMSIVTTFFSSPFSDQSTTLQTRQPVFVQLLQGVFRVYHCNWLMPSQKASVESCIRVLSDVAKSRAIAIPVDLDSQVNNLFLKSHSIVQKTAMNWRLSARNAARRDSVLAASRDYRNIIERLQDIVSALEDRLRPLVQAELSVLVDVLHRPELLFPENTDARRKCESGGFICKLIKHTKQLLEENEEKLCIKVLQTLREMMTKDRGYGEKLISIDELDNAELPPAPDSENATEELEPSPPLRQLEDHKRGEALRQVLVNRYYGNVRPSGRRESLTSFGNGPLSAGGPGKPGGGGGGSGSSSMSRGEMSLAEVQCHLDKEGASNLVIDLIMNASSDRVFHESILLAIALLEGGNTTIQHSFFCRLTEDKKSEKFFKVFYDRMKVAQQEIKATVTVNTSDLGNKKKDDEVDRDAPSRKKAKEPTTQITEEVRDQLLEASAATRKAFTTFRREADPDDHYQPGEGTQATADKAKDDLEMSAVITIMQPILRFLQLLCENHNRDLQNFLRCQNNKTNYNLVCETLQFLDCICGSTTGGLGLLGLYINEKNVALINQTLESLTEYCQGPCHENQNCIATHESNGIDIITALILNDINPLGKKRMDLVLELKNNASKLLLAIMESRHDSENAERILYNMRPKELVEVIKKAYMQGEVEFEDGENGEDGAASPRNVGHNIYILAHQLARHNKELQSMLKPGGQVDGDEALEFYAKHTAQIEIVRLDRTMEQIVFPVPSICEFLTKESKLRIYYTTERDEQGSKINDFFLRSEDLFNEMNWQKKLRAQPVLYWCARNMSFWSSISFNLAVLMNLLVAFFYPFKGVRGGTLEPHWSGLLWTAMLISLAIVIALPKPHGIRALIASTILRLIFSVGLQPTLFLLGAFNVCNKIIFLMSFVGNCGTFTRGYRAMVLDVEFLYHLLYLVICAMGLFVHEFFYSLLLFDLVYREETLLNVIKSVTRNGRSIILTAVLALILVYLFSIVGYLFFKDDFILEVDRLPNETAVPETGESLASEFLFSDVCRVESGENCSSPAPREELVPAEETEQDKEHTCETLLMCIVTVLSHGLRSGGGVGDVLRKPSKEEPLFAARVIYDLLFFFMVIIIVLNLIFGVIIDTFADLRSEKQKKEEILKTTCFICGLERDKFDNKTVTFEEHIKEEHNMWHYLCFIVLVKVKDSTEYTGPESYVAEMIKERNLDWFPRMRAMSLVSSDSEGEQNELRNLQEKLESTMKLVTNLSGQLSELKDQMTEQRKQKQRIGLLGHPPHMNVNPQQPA
# UniProt Q9NQX7: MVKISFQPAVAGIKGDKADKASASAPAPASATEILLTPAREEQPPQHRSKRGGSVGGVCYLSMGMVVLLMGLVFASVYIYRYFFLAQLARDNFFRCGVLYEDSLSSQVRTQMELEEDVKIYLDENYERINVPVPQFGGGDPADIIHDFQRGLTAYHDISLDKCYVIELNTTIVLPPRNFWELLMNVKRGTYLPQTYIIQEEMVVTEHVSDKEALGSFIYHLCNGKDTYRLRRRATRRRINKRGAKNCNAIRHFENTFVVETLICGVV
# UniProt Q86U28: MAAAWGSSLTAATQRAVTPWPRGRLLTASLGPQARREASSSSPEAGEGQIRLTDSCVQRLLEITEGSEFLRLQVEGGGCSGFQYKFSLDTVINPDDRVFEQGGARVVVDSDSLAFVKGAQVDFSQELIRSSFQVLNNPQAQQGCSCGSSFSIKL
# UniProt O75164: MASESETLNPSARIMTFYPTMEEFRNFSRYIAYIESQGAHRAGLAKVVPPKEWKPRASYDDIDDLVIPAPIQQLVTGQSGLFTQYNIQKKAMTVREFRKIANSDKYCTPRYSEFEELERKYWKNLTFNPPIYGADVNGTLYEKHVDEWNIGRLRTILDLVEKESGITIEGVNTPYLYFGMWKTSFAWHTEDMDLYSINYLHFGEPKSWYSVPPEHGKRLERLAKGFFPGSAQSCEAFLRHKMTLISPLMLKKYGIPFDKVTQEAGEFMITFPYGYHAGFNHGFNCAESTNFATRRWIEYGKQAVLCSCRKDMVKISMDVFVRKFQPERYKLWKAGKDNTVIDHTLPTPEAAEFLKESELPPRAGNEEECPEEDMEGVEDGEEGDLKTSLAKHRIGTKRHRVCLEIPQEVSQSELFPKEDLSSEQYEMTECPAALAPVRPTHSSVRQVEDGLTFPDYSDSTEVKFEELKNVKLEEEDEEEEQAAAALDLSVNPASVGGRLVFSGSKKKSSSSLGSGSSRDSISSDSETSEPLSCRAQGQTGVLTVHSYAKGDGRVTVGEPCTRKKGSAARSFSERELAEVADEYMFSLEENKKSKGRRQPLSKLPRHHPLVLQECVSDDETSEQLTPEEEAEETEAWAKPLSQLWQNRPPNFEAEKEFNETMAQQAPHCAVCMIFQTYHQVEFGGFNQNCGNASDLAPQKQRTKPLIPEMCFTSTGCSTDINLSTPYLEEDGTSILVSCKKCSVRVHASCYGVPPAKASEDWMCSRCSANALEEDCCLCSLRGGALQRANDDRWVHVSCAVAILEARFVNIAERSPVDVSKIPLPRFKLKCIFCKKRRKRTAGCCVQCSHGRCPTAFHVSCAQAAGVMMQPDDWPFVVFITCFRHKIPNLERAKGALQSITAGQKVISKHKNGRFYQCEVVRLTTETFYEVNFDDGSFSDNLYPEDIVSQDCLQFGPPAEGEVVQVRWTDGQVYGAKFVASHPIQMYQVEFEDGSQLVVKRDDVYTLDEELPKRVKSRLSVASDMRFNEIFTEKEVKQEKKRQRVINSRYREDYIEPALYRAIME
# UniProt Q9H910: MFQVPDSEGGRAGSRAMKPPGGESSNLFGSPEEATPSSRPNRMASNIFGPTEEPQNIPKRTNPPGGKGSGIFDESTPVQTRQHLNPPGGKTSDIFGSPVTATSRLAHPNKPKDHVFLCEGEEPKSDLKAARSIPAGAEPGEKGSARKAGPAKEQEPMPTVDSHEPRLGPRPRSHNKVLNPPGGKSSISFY
# The other results are listed elsewhere or left out. The data scatter; read single values as rough.
# Tests used:
# [1] = compound: ClCC(=O)N[C@@H]1CCCc2ccccc12; assay: log2 mean competition ratio of IA-DTB cysteine labelling (DMSO/compound) (log2 ratio); higher = stronger cysteine engagement by compound; details: treatment time: 4 h, cell line lysate: HEK293T
# Description: (§1)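 IA-DTB competitive cysteine chemoproteomics in HEK293T RIPA lysate. Lysates were treated with compound 29 or 30 at 50 or 200 µM for 4 h, then IA-DTB (500 µM, 1 h), trypsin-digested, NeutrAvidin-enriched and analysed by diaPASEF. Competition ratio = intensity DMSO / intensity compound (n=4 treated, n=64 DMSO); binding: mean log2 CR ≥ 1 and p ≤ 0.05 plus QC filters. Target is the cysteine site.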
# [2] = compound: ClCC(=O)N[C@H]1CCCc2ccccc12; assay: as above; details: treatment time: 4 h, cell line lysate: HEK293T
# Description: as §1
Target,log2 mean competition ratio ([1]; 50 µM),log2 mean competition ratio ([1]; 200 µM),log2 mean competition ratio ([2]; 50 µM),log2 mean competition ratio ([2]; 200 µM)
KIF1C C350 (UniProt O43896),-0.111,-0.174,-0.0237,-0.0729
ITSN2 C1389 (UniProt Q9NZM3),0.0292,-0.565,-0.0669,-0.373
KAT6A C1187,-0.0113,-0.144,0.211,-0.237
KIF2C C287 (UniProt Q99661),0.0355,-0.123,0.146,0.0282
ITPR1 C1545 (UniProt Q14643),-0.124,-0.0298,0.243,-0.0521
ITM2C C96 (UniProt Q9NQX7),-0.0691,-0.186,0.12,-0.181
KAT14 C478 (UniProt Q9H8E8),0.41,0.59,0.367,0.175
KIAA1107 C986,-0.314,0.112,-0.102,0.324
KATNB1 C556 (UniProt Q9BVA0),-0.0306,-0.256,-0.333,-0.274
ITPR2 C1522 (UniProt Q14571),-0.235,-0.641,0.0565,-0.446
ISCA2 C79 (UniProt Q86U28),0.234,-0.158,0.572,-0.174
KDM4A C533 (UniProt O75164),-0.136,-0.00681,0.513,-0.0543
KIF3A C621 (UniProt Q9Y496),0.275,-0.00151,0.026,0.0139
JAK1 C944 (UniProt P23458),-0.0598,0.0699,-0.226,0.0576
JPT2 C118 (UniProt Q9H910),0.308,0.0747,0.304,0.201

# 2 entries from above, set out differently:
Target	log2 mean competition ratio ([1]; 50 µM)	log2 mean competition ratio ([1]; 200 µM)	log2 mean competition ratio ([2]; 50 µM)	log2 mean competition ratio ([2]; 200 µM)
KAT6A C1187	-0.0113	-0.144	0.211	-0.237
KIF2C C287 (UniProt Q99661)	0.0355	-0.123	0.146	0.0282
